Laboratory results from patent US7081473B2, “Agent for preventing/ameliorating obesity comprising methylidene hydrizide compound as active ingredient” (Sanwa Kagaku Kenkyusho Co., Ltd., priority 2002, dated 2006).
Some results were stated once for a whole list of compounds, not compound by compound.

Sequences of proteins named here, by UniProt entry; tags and fusion partners are left off. Residues count along the entry.
UniProt P43220, 24-463, species assumed: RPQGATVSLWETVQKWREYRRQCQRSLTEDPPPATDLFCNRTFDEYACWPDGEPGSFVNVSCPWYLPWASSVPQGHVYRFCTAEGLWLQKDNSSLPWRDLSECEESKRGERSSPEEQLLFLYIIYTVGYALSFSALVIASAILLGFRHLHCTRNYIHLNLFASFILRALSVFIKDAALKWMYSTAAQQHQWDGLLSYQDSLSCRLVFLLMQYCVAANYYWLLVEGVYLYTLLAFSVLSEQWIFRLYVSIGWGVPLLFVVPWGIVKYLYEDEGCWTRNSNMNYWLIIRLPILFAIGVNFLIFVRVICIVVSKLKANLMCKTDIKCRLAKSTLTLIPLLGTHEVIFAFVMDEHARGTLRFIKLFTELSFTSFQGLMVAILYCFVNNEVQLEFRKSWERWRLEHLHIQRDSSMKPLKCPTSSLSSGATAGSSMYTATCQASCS

Tests used:
Type in all cases: cell-based
human GIP receptor = molecular target: T1, human GIP receptor (Homo sapiens, UniProt P48546); assay: Inhibition of cAMP production by GIP stimulation in human GIP receptor-expressing CHO cells; details: cells expressing the GIP receptor, result in words
T1 construct: expressed in transfected cells; host or cells: CHO cells
T1 sequence (P48546 22-466): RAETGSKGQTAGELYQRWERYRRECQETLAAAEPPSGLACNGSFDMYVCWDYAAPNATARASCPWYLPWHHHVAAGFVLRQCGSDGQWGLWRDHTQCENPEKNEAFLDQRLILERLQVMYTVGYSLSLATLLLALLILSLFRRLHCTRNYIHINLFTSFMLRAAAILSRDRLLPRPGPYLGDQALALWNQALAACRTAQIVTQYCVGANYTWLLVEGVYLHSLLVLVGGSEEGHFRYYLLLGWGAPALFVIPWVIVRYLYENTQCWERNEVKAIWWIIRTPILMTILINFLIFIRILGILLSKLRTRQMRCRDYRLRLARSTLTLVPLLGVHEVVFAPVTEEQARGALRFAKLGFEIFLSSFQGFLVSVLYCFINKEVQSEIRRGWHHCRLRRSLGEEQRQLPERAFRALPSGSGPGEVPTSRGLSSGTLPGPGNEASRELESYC
From the text: The system for evaluation of GIP function inhibitors (GIP receptor antagonists and the like) made use of the following method wherein their inhibitory activity on production of cAMP as GIP intracellular transmitter was used as an indicator.
According to a method of Kubota et al. (Diabetes 45: 1701–1705, 1996), human GIP receptor-expressing cells prepared by introducing GIP cDNA into CHO cells were used. First, cAMP was produced by stimulation with 100 pM GIP in the presence/absence of the test chemical at 37° C. for 30 minutes in phosphate-buffered saline, pH 7.4, containing 1 mM isobutylmethylxanthine, 5.6 mM glucose and 0.5% bovine serum albumin. Then, using a cAMP assay system (PE Biosystems), the cells were lyzed with an attached lysis buffer, the amount of cAMP accumulated in the cells was measured, and the inhibitory activity of the test sample on the functions of GIP was determined. To verify the action of the test sample completely irrelevant to the action on GIP receptor, the inhibitory effect of the test sample on formation of cAMP upon stimulating, with 5 μM forskolin, CHO cells into which the GIP receptor gene had not been introduced (cells not expressing the GIP receptor) was also confirmed. The inhibitory activity was expressed in terms of IC50 (concentration of the compound at which the production of cAMP by GIP is inhibited by 50%). A compound not showing any inhibitory activity on formation of cAMP in the cells not expressing the GIP receptor, but inhibiting the formation of cAMP by stimulation with GIP, in the cells expressing the GIP receptor, was regarded as an active compound.

[1] = test system: CHO cells not expressing the GIP receptor; assay: Inhibition of cAMP formation upon forskolin stimulation in CHO cells not expressing the GIP receptor; details: 5 μM forskolin
GLP-1 receptor = molecular target: T2, GLP-1 receptor (Homo sapiens, UniProt P43220); assay: Inhibition of cAMP formation upon GLP-1 stimulation in CHO cells expressing GLP-1 receptor (receptor selectivity); details: GLP-1 60 pM
T2 construct: expressed in transfected cells; host or cells: CHO cells

[2] = test sample at the concentration of IC50 on the GIP receptor

Row | Compound | inhibition of cAMP formation upon stimulation with GIP (functions of GIP) (human GIP receptor) | inhibitory activity on cAMP formation upon stimulation with forskolin [1] | inhibitory activity on formation of cAMP upon stimulation with GLP-1 (GLP-1 receptor; [2]) | inhibitory activity on formation of cAMP upon stimulation with GLP-1 (GLP-1 receptor; comparative control at 500 nM)
1 | O=C(N/N=C/c1ccccc1Br)c1ccc(O)cc1 [Compound 1] | inhibited cAMP formation upon stimulation with GIP | did not exhibit any inhibitory activity | did not exhibit any inhibitory activity | –
2 | Cc1cc(C)c(C)c(Cn2ccc3c(/C=N/NC(=O)c4ccc(O)c(C#N)c4)cccc32)c1C [Compound 2, 3-Cyano-4-hydroxybenzoic acid [1-(2,3,5,6-tetramethylbenzyl)indol-4-yl]methylidene hydrazide] | inhibited cAMP formation upon stimulation with GIP | did not exhibit any inhibitory activity | did not exhibit any inhibitory activity | –
3 | COc1ccc(/C=N/NC(=O)c2ccc(O)c(Cl)c2)c2ccccc12 [Compound 3, 3-Chloro-4-hydroxybenzoic acid (4-methoxynaphthalen-1-yl)methylidene hydrazide] | inhibited cAMP formation upon stimulation with GIP | did not exhibit any inhibitory activity | did not exhibit any inhibitory activity | –
4 | O=C(N/N=C/c1ccc2c(ccn2Cc2ccc(Cl)s2)c1)c1ccc(O)c(Cl)c1 [Compound 4, 3-Chloro-4-hydroxybenzoic acid [1-(5-chlorothiophen-2-ylmethyl)-1H-indol-5-yl]methylidene hydrazide] | inhibited cAMP formation upon stimulation with GIP | did not exhibit any inhibitory activity | did not exhibit any inhibitory activity | –
5 | GIP(7–30) —NH2 [tGIP, reference compound] | – | – | – | did not exhibit any inhibitory activity
